Laboratory results from article PMC11514447, “Eukaryotic initiation factor 4B is a multi-functional RNA binding protein that regulates histone mRNAs”.

Protein sequences, listed by entry. Tags and fused reporters are not part of them.
UniProt P23588: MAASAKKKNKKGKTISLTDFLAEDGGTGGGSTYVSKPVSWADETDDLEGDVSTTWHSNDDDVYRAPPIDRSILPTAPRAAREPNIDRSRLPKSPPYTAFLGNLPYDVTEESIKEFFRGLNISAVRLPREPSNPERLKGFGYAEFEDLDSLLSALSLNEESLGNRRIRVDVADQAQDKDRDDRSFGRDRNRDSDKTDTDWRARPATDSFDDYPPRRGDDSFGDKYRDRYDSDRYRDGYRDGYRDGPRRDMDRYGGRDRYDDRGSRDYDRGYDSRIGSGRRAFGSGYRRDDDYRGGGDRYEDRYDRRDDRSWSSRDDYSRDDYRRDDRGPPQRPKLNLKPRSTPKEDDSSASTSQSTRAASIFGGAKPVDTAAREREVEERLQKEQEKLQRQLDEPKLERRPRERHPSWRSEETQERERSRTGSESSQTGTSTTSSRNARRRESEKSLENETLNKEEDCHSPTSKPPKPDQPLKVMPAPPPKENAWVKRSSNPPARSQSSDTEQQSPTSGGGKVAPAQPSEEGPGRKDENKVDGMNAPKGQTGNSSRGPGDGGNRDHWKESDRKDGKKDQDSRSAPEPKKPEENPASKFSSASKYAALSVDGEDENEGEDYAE
UniProt Q13283: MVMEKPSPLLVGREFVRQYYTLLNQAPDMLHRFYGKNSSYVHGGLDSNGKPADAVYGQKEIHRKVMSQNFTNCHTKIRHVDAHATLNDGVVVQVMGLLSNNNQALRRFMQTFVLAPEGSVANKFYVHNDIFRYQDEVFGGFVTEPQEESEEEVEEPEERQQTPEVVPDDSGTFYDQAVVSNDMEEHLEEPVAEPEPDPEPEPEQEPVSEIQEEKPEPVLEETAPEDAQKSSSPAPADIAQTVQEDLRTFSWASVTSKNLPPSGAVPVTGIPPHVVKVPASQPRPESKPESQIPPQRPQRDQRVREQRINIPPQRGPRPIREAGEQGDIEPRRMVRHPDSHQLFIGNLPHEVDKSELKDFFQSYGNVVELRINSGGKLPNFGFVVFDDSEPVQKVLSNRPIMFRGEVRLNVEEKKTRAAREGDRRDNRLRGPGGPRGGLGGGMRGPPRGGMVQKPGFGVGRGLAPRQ
UniProt P51114: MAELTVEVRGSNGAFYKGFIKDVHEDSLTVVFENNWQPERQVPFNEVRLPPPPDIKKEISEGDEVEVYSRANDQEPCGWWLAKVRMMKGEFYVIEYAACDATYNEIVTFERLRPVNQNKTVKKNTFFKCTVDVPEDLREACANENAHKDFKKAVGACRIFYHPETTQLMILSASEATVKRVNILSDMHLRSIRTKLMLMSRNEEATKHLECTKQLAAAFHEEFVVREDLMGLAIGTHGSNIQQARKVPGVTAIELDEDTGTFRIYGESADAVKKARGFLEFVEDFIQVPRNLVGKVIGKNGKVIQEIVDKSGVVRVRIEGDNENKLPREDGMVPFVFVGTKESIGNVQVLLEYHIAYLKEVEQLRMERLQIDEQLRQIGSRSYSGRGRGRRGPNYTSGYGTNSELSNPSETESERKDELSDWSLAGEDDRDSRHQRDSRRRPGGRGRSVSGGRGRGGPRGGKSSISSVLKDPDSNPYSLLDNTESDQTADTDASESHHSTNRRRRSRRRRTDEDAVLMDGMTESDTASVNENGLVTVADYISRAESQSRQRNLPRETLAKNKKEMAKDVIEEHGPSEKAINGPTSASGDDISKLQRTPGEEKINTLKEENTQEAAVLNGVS
UniProt Q14240: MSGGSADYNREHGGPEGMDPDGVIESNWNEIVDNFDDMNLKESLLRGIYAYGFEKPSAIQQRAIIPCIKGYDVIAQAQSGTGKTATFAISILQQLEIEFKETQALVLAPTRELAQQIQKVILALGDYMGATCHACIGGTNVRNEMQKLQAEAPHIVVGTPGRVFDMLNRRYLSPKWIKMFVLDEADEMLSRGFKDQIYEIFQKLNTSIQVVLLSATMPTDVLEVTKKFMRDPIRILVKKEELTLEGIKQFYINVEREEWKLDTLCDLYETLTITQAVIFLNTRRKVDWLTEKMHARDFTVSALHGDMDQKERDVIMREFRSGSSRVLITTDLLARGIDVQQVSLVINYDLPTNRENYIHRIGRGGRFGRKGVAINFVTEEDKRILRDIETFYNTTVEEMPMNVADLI
UniProt P04406: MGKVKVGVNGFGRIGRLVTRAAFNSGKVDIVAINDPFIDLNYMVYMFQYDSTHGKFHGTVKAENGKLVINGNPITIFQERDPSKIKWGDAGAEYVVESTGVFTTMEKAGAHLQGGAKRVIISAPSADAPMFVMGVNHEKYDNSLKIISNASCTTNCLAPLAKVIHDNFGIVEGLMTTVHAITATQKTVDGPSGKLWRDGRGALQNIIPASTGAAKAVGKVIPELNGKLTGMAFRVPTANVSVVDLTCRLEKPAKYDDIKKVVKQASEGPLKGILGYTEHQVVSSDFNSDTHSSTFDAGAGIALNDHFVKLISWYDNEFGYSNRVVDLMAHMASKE
UniProt P38919: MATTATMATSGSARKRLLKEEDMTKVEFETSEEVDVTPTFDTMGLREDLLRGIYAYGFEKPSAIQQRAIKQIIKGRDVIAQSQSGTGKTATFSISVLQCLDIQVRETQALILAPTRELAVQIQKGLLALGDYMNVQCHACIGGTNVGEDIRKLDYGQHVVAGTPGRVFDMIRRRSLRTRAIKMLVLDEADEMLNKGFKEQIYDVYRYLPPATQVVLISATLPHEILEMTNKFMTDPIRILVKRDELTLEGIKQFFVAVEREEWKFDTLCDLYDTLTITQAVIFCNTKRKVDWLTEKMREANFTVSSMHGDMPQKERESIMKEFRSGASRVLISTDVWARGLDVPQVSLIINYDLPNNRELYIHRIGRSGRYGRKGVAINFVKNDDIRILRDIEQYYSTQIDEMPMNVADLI

B1: UPF1 (up-frameshift protein 1) (protein, UniProt Q92900 1-1129)
chain: MSVEAYGPSSQTLTFLDTEEAELLGADTQGSEFEFTDFTLPSQTQTPPGGPGGPGGGGAGGPGGAGAGAAAGQLDAQVGPEGILQNGAVDDSVAKTSQLLAELNFEEDEEDTYYTKDLPIHACSYCGIHDPACVVYCNTSKKWFCNGRGNTSGSHIVNHLVRAKCKEVTLHKDGPLGETVLECYNCGCRNVFLLGFIPAKADSVVVLLCRQPCASQSSLKDINWDSSQWQPLIQDRCFLSWLVKIPSEQEQLRARQITAQQINKLEELWKENPSATLEDLEKPGVDEEPQHVLLRYEDAYQYQNIFGPLVKLEADYDKKLKESQTQDNITVRWDLGLNKKRIAYFTLPKTDSGNEDLVIIWLRDMRLMQGDEICLRYKGDLAPLWKGIGHVIKVPDNYGDEIAIELRSSVGAPVEVTHNFQVDFVWKSTSFDRMQSALKTFAVDETSVSGYIYHKLLGHEVEDVIIKCQLPKRFTAQGLPDLNHSQVYAVKTVLQRPLSLIQGPPGTGKTVTSATIVYHLARQGNGPVLVCAPSNIAVDQLTEKIHQTGLKVVRLCAKSREAIDSPVSFLALHNQIRNMDSMPELQKLQQLKDETGELSSADEKRYRALKRTAERELLMNADVICCTCVGAGDPRLAKMQFRSILIDESTQATEPECMVPVVLGAKQLILVGDHCQLGPVVMCKKAAKAGLSQSLFERLVVLGIRPIRLQVQYRMHPALSAFPSNIFYEGSLQNGVTAADRVKKGFDFQWPQPDKPMFFYVTQGQEEIASSGTSYLNRTEAANVEKITTKLLKAGAKPDQIGIITPYEGQRSYLVQYMQFSGSLHTKLYQEVEIASVDAFQGREKDFIILSCVRANEHQGIGFLNDPRRLNVALTRARYGVIIVGNPKALSKQPLWNHLLNYYKEQKVLVEGPLNNLRESLMQFSKPRKLVNTINPGARFMTTAMYDAREAIIPGSVYDRSSQGRPSSMYFQTHDQIGMISAGPSHVAAMNIPIPFNLVMPPMPPPGYFGQANGPAAGRGTPKGKTGRGGRQKNRFGLPGPSQTNLPNSQASQDVASQPFSQGALTQGYISMSQPSQMSQPGLSQPELSQDSYLGDEFKSQIDVALSQDSTYQGERAYQHGGVTGLSQY

Molecular target: eukaryotic initiation factor 4B (human (endogenous in DoHH-2 and GM01953)) (UniProt P23588)
Experiment: affinity purification with mass spectrometry; eIF4B antibody covalently coupled to Dynabeads; DoHH-2 and GM01953 lysates, 2 h at 4°C; RNA digested with RNase T1; washed three times in whole-cell lysis buffer; LC-MS/MS; enrichment against rabbit IgG control; triplicate

| Molecule | binding |
| --- | --- |
| G3BP1 (from UniProt Q13283 1-466) | binds |
| FXR1 (from UniProt P51114 1-621) | binds |
| eIF4A2 (from UniProt Q14240 1-407) | binds |
| GAPDH (from UniProt P04406 1-335) | no binding |
| eIF4A3 (from UniProt P38919 1-411) | binds |
| B1 | binds |

No constants are given. Whether binding was seen depends on the method and setting. Binding seen in cells or lysates may run through a third protein. A yes stands for co-enrichment or nearness to the bait. Other partners may have been found. A no says only that the protein was not detected with the bait.
